# According to the supplement of paper PMC8104966:
# Where “and” joins values, the source holds several entries; their conditions need not be identical. Equal entries are not always repeated. Some of the results follow. Single values are uncertain here, since repeats match poorly.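 Fusion between ACE2-bearing and full-length-spike-bearing U2OS cells was measured by imaging as the percentage of nuclei with both cell types' fluorescent markers. An inhibitory hit is a non-toxic compound whose fusion z-score is below -3, more than three standard deviations beneath the plate's DMSO wells.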
# Tested on: U2OS ACE2 x SARS-CoV-2 spike co-culture
# Assay: cell-cell fusion (fraction fused) z-score vs plate DMSO control; higher = more fusion
# Conditions: 30 µM; 5 h; toxicity class: non-toxic, passed QC
row,SMILES,cell-cell fusion (z-score)
1,CN(C)c1cc(CNCC(C)(C)C)c(O)c2c1C[C@H]1C[C@H]3[C@H](N(C)C)C(O)=C(C(N)=O)C(=O)[C@@]3(O)C(O)=C1C2=O [Omadacycline],inactive: 3.11
2,COCCOc1cc2nc[nH]c(=O)c2cc1OCCOC,inactive: 1.01
3,CNC(C)(C)Cc1ccccc1.O=S(=O)(O)O,inactive: 3.33
4,CC1(C)S[C@@H]2[C@H](NC(=O)[C@@H](N)c3ccc(O)cc3)C(=O)N2[C@H]1C(=O)O,inactive: 1.7
5,O=C1c2ccccc2C(=O)c2c(O)c(O)cc(O)c21,inactive: 2.78
6,CC1=C(C)C(=O)C(C(CCCCCC(=O)O)c2ccccc2)=C(C)C1=O (centres undefined),inactive: 0.551
7,Nc1ccc(CCNc2ncnc3c2ncn3C2OC(CO)C(O)C2O)cc1 (centres undefined) [N6-2-(4-Aminophenyl)ethyladenosine],inactive: 0.209
8,Cc1cc(NC(=O)Nc2ccc3c(ccn3C)c2)sn1,inactive: 0.389
9,CN1CCC[C@@H]1CCO[C@](C)(c1ccccc1)c1ccc(Cl)cc1.O=C(O)/C=C/C(=O)O [Clemastine fumarate],inactive: -0.133
10,Cl.O=C(O)Cc1cccc(OCCCN(Cc2cccc(C(F)(F)F)c2Cl)CC(c2ccccc2)c2ccccc2)c1,inactive: -0.311
11,C#C[C@]1(O)CC[C@H]2[C@@H]3CCc4cc(OC)ccc4[C@H]3CC[C@@]21C [Mestranol],inactive: 1.88
12,CCc1nc(N)nc(N)c1-c1ccc(Cl)cc1 [Pyrimethamine],inactive: 1.45
13,Clc1ccc(C(c2ccccc2Cl)C(Cl)Cl)cc1 (centres undefined) [Mitotan],inactive: 2.95
14,CCOc1ccc(Cc2cc([C@@H]3O[C@H](CO)[C@@H](O)[C@H](O)[C@@H]3O)ccc2Cl)cc1 [Dapagliflozin],inactive: 0.311
15,O=P(O)(O)C(O)(Cc1cccnc1)P(=O)(O)O [Risedronic Acid],inactive: 3.05
16,OCCc1ccccc1,inactive: 2.8
17,C[C@H](Cn1cnc2c(N)ncnc21)OCP(=O)(O)O [Tenofovir],inactive: 0.991
18,CN(c1ccccc1CNc1nc(Nc2ccc3c(c2)CC(=O)N3)ncc1C(F)(F)F)S(C)(=O)=O.O,active: -3.72
19,C#CC(C)(O)CC (centres undefined),inactive: 1.8
20,O=C(O)CN1C(=O)c2cccc3cccc(c23)C1=O,inactive: 1.66
21,COc1cc2ncnc(Nc3ccc(F)c(Cl)c3)c2cc1NC(=O)/C=C/CN1CCCCC1,inactive: -1.19 and inactive: -0.134
22,COc1cc(CC(=O)O)ccc1O [4-Hydroxy-3-methoxyphenylacetic acid],inactive: 2.32
23,CC(C)NCC(O)c1ccc(NS(C)(=O)=O)cc1.Cl (centres undefined) [Sotalol hydrochloride],inactive: 2.68
24,O=C1CCC[C@H]2[C@@H]3CCC[N+]4([O-])CCC[C@H](CN12)[C@H]34 (some centres undefined),inactive: 1.75
25,C/C(O)=C(\C#N)C(=O)Nc1ccc(C(F)(F)F)cc1 [Teriflunomide],inactive: 3.23

# Some of the entries so far, tab-delimited:
row	SMILES	cell-cell fusion (z-score)
5	O=C1c2ccccc2C(=O)c2c(O)c(O)cc(O)c21	inactive: 2.78
20	O=C(O)CN1C(=O)c2cccc3cccc(c23)C1=O	inactive: 1.66

# Following part:

row,SMILES,cell-cell fusion (z-score)
1,Br.C=CCN1CCc2c(cc(O)c(O)c2Cl)C(c2ccccc2)C1 (racemic) [(±)-Chloro-APB hydrobromide],inactive: 1.2
2,CO[C@H]1/C=C/O[C@@]2(C)Oc3c(C)c(O)c4c(O)c(c(/C=N/N5CCN(C6CCCC6)CC5)c(O)c4c3C2=O)NC(=O)/C(C)=C\C=C\[C@H](C)[C@H](O)[C@@H](C)[C@@H](O)[C@@H](C)[C@H](OC(C)=O)[C@@H]1C [Rifapentine],active: -7
3,COc1ccc(OC)c(C(O)C(C)N)c1.Cl (centres undefined),inactive: 1.09
4,COc1ccc(OC)c(C(O)C(C)N)c1.Cl (centres undefined) [Methoxamine hydrochloride],inactive: 3.04
5,Oc1cccc2[nH]ccc12,inactive: 2.21
6,CCOC(=O)[C@H](CC(C)C)NC(=O)[C@@H](NC(=O)[C@H](Cc1c[nH]c2ccccc12)NC(=O)[C@@H]1CCCN1C(=O)[C@H](CCCCN)NC[C@@H](N)CCCCN)C(C)(C)C.Cl.Cl.Cl.Cl.O,inactive: 2.53
7,NC(COCc1ccccc1)C(=O)O (centres undefined),inactive: 1.59
8,CC1(O)CCC(C(C)(C)O)CC1.O (centres undefined),inactive: 2.04
9,CCC(=O)NCC[C@@H]1CCc2ccc3c(c21)CCO3,inactive: 2.11
10,CCN(CC)C(=S)SSC(=S)N(CC)CC [Disulfiram (Antabuse)],inactive: 1.12
11,O=C(NCc1c(F)cc(F)cc1F)c1cn2c(c(O)c1=O)C(=O)N1[C@H]3CC[C@H](C3)O[C@@H]1C2 [Bictegravir],inactive: 2.81
12,NC(=O)NO,inactive: 0.421
13,NC(=O)NO [Hydroxyurea],inactive: 2.78
14,CCC(C)N(C)C(=O)c1cc2ccccc2c(-c2ccccc2Cl)n1 (centres undefined),inactive: 2.94
15,Cn1cnc(N)c2ncnc1-2 [3-Methyladenine],inactive: 1.45
16,CC(O)c1cc(C(=O)N[C@@H](C)Cn2ccc(-c3ccc(C#N)c(Cl)c3)n2)n[nH]1 (some centres undefined) [Darolutamide],inactive: 1.27
17,CN(Cc1cc(Br)cc(Br)c1N)C1CCCCC1.Cl,inactive: 3.17
18,CCCN(CCC)C1Cc2cc(OC)c(OC)cc2C1.O=C(O)/C=C\C(=O)O,inactive: 2.16
19,Cl.NC(N)=N/C(N)=N/CCc1ccccc1,inactive: 2.35
20,CC(C)(C)CC(C)(C)c1cc(Cc2cc(C(C)(C)CC(C)(C)C)cc(-n3nc4ccccc4n3)c2O)c(O)c(-n2nc3ccccc3n2)c1.NCCO.NCCO,inactive: 0.285
21,Cc1[nH]c(=O)c(C#N)cc1-c1ccncc1 [Milrinone],inactive: 2.31
22,Cc1[nH]c(=O)c(C#N)cc1-c1ccncc1,inactive: 3.24
23,C[C@]1(O)C[C@@H](c2nc(-c3ccc4ccc(-c5ccccc5)nc4c3)c3c(N)nccn32)C1 [OSI-906 (Linsitinib)],inactive: 2.79
24,C[C@]1(O)C[C@@H](c2nc(-c3ccc4ccc(-c5ccccc5)nc4c3)c3c(N)nccn32)C1 [Linsitinib (OSI-906)],inactive: 2.57

# Pulled one by one from the entries so far (two):
row,SMILES,cell-cell fusion (z-score)
23,C[C@]1(O)C[C@@H](c2nc(-c3ccc4ccc(-c5ccccc5)nc4c3)c3c(N)nccn32)C1 [OSI-906 (Linsitinib)],inactive: 2.79
12,NC(=O)NO,inactive: 0.421
